The full ranking holds about 33,000 sequences; the median of “E-score (-0.5 to 0.5)” is about -0.0034, and the highest 2% start at about 0.25. Some of the results follow.
target: T1, Yap3 (UniProt P38749); assay: PBM E-score (8-mer binding enrichment) (E-score (-0.5 to 0.5)); higher = stronger / more preferred TF binding; conditions: protein concentration: 100 nM; construct: GST-full length
T1 sequence: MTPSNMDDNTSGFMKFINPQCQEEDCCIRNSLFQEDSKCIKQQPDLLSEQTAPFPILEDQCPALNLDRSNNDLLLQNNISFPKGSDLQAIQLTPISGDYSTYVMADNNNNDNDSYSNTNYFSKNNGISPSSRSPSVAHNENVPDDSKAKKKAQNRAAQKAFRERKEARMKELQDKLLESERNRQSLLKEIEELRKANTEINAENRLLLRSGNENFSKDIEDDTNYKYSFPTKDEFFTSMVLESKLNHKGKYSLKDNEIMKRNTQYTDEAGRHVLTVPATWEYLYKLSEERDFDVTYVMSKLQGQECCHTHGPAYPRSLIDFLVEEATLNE
In short: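 For each ungapped eight-base word taken together with its reverse complement, the Universal PBM Analysis Suite assigned an E-score. Binding data came from GST-tagged yeast transcription factors, applied at about 100-200 nM, on universal all-10-mer Agilent arrays made double-stranded by primer extension. Fluorescent anti-GST marked bound protein, and scans were normalised with masliner.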

Sequence	PBM E-score
GGTCTTGA	-0.155
CTGAGGAA	-0.0654
AGGGTTAA	-0.101
AAAGCCAG	0.0805
AATTCGGG	0.043
TGACTTAA	0.111
ACACAAGC	0.0803
CATCCTAA	0.0568
ACACTACT	0.174
CGAATCCC	-0.0351
AAATTCAA	0.117
CCCCGTCC	-0.327
AAGCCGCG	-0.0993
CCGCATGA	-0.136
ACGCCATA	0.0832
CCTCTAGC	-0.189
CAGCCAGG	-0.0639
CATGACAA	0.143
GAGAATAC	0.115
CTAGGCCA	-0.0903
TCTTGAAA	0.173
ATACCCAT	0.0631
CTTTGTAC	0.0552
AACACGTG	0.205
ACTGCCAG	-0.0114

Sequence	PBM E-score
GGTCTTAA	-0.237
AACCGGCC	-0.209
GTGACTGA	0.167
GCGAGAAA	0.116
GTAAACGA	0.0279
CTGGGGCA	-0.309
TAACGTCA	0.0893
AGAACCCC	-0.184
AGAGAAAC	0.156
CCAATGCA	0.0288
AAGGCGCA	-0.036
CCGAAAGG	-0.13
CACGACGG	0.116
CGATAGCC	-0.0534
AGGTGAAT	0.0312
ACATCCAG	0.0264
ACTGCCTA	-0.0156
AAAAGTAA	0.246
CCACCTCG	-0.214
CTCGTATA	-0.142
TGTATGAA	0.111
AACTTCAT	0.145
GGGATTCA	0.0245
CCTGTTCG	0.0413
GAGGGGCA	-0.299

Sequence	PBM E-score
GAGTAACC	0.112
GGAAGGTA	-0.0252
CAATAGGC	-0.0943
CAATGAGG	-0.145
AGTGCTAT	0.0685
GAAAGATC	-0.0498
GGGGGGAA	-0.206
CTGTATGC	-0.0877
GGACGGAA	-0.125
AGCCCCCG	-0.415
CGCCAACG	-0.119
ACAAGATA	0.136
GCAGCGAC	-0.269
GGTTGCCA	-0.0346
CCAGTAAG	-0.0333
GCTCCTAC	-0.234
GCGCAGCA	-0.307
CTAAGCGA	0.00759
ATGACTAC	0.0437
ACTGCGAA	-0.187
AGGGTAGA	-0.0934
GGTACGGA	-0.0413
CATGTCGC	0.0256
ACGTCCCA	-0.201
AGCTAGGC	-0.207

Sequence	PBM E-score
CAGCCTAG	0.0532
AAGCAAAT	0.0796
ATCACGAG	-0.127
AGGACCAG	-0.141
AGCGTAAG	0.0664
GCTATCCC	-0.111
ACGCTTTG	0.113
CTGGTAAA	0.0949
ATTGAACG	0.0667
ATCGTTGC	0.0555
CCCTTCTA	-0.143
ACTGGCGC	-0.116
ACTCTGAT	0.0185
AGCCGCCT	-0.096
GGCACAGA	-0.233
CGCGGACG	-0.072
AACGAAGT	-0.0967
GACGGCGA	-0.184
ACATTCCG	0.0451
AAGCGAAA	0.0738
AATCAAAG	-9e-05
ATGATGAC	0.161
ACCGTGGC	-0.174
AGTCTATA	-0.125
AATTAAAG	0.121

Sequence	PBM E-score
CTCAGCAA	0.0502
AACACATG	0.121
CAGGGCTA	-0.145
AGTTAAAG	0.111
CCACTGTC	-0.187
CCGCCTTC	-0.156
GCGTTTAA	0.122
AAGTGCGA	-0.247
CCCGAAGG	-0.122
CGCTTCTA	0.0325
GCACACTA	0.0181
TGCTAGCA	-0.0927
CGCGCGAA	-0.00819
AGAACGCG	0.14
CCAGGAAA	0.108
CCTTCCTA	-0.253
ACCATCTG	-0.0917
ATGGACCG	-0.0751
CCATACCA	0.0238
CTTGTGAC	-0.0821
CATGGTTC	0.123
ATTGAGGC	0.0601
ATACAGCC	0.00933
CACCCCGC	-0.207
AATATGGA	0.123

6 successive records already listed, for reference:
Sequence	PBM E-score
CGCGCGAA	-0.00819
AGAACGCG	0.14
CCAGGAAA	0.108
CCTTCCTA	-0.253
ACCATCTG	-0.0917
ATGGACCG	-0.0751

The list continues.

Sequence	PBM E-score
ACGCACCT	-0.0472
GGTCTTAC	-0.123
ACTTGGCC	-0.0737
AGCTCAGA	-0.0842
CAGGTTCC	-0.113
CCGCTTGC	-0.066
CGCCTTCA	-0.295
AACTGGAA	0.0582
AGTGTGTG	0.0249
GAGGAACC	-0.0896
CATCAATC	-0.0452
CAGTGCGG	-0.138
CTTTCTAC	0.157
GAACAACA	0.12
AGAAGACG	0.2
CGGGCAGA	0.00944
CACTCAAA	0.0945
AGATTACT	0.122
ATTACATA	0.233
TCATTACA	0.247
CTAAACTC	-0.0352
CTAGAAAG	0.0742
AGATACCT	-0.0664
GCGGTGTA	-0.064
AAAGACGG	-0.00958

Sequence	PBM E-score
AACGTGTA	-0.0475
GGGCAATA	0.0845
ATATCAGC	0.0878
CGACTTTA	0.0707
TGAATGAA	0.182
CAAGTTCG	-0.0995
ACGGAACT	0.0114
ATCGAAAT	0.0378
AGAGATCA	0.0988
CTGTAATC	-0.00575
TATCAGCA	0.0717
ACCCAAGG	0.0773
TAACGGGA	-0.124
CAAGATGA	-0.0997
ATCGACTA	0.0167
CGGACGAC	-0.109
CAAGATAA	0.221
ATAATGGG	0.139
ATATGTAA	0.211
AGACCAGC	-0.265
ACTCCGTA	-0.0154
ACGGTTCC	-0.0727

Source: the supplement of paper PMC3334620
